According to patent US20210087281A1 (AGOMAB THERAPEUTICS, published 2021):
Where a chain is given by its changes, count along the chain named. Results are given in words; binding and its absence hold for the method and conditions named. For part of these data: Binding calls can cover weak binding; strength is not graded here.

B1: 71G2 chimeric llama-human IgG1 mAb (antibody, V domains shown)
VH: EVQLQESGGGLVQPGGSLRLSCAASGFTFSIYDMSWVRQAPGKGLEWVSTINSDGSSTSYVDSVKGRFTISRDNAKNTLYLQMNSLKPEDTAVYYCAKVYGSTWDVGPMGYGMDYWGKGTLVTVSS
VL: SSALTQPSALSVSLGQTARITCQGGSLGSSYAHWYQQKPGQAPVLVIYGDDSRPSGIPERFSGSSSGGTATLTISGAQAEDEDDYYCQSTDSSGNTVFGGGTRLTVL
notes: llama VH on human IgG1 CH1-CH2-CH3, llama VL on human lambda CL
B2: 71C3 chimeric llama-human IgG1 mAb (antibody, V domains shown)
VH: QLQLVESGGGLVQPGGSLRLSCAASGFTFSSHAMSWVRQAPGKGLEWVSAINSGGGSTSYADSVKGRFTISRDNAKNTLYLQMNSLKPEDTAVYYCAKELRFDLARYTDYEAWDYWGQGTQVTVSS
VL: SYELTQPSALSVTLGQTAKITCQGGSLGSSYAHWYQQKPGQAPVLVIYDDDSRPSGIPERFSGSSSGGTATLTISGAQAEDEGDYYCQSADSSGNAAVFGGGTHLTVL
notes: as for B1
B3: 71A3 chimeric llama-human IgG1 mAb (antibody, V domains shown)
VH: EVQLVESGGGLVQPGGSLRLSCAASGFSFKDYDITWVRQAPGKGLEWVSTITSRSGSTSYVDSVKGRFTISGDNAKNTLYLQMNSLKPEDTAVYYCAKVYATTWDVGPLGYGMDYWGKGTLVTVSS
VL: B2 VL
notes: as for B1
B4: 71D4 chimeric llama-human IgG1 mAb (antibody, V domains shown)
VH: B2 VH with Q1E, S31G, H32Y, A33G, A50D, E99D, L100M, F102L, D103Y, T108N
VL: B2 VL with Y2S, E3A
notes: as for B1
B5: 72F8 chimeric llama-human IgG1 mAb (antibody, V domains shown)
VH: ELQLVESGGGLVQPGGSLRLSCAASGFTFSNYVMSWVRQAPGKGLEWVSDTNSGGSTSYADSVKGRFTISRDNAKNTLYLQMNSLKPEDTALYYCARSFFYGMNYWGKGTQVTVSS
VL: QSALTQPPSLSASPGSSVRLTCTLSSGNNIGSYDISWYQQKAGSPPRYLLNYYTDSRKHQDSGVPSRFSGSKDASANAGLLLISGLQPEDEADYYCSAYKSGSYRWVFGGGTHVTVL
notes: as for B1
B6: 76G7 chimeric llama-human IgG1 mAb (antibody, V domains shown)
VH: QVQLVESGGNLVQPGGSLRLSCAASGFTFSNYYMSWVRQAPGKGLEWVSDIYSDGSTTWYSDSVKGRFTISRDNAKNTLSLQMNSLKSEDTAVYYCARVKIYPGGYDAWGQGTQVTVSS
VL: QAGLTQPPSVSGSPGKTVTISCAGNSSDVGYGNYVSWYQQFPGMAPKLLIYLVNKRASGITDRFSGSKSGNTASLTISGLQSEDEADYYCASYTGSNNIVFGGGTHLTVL
notes: as for B1

Each binder was assayed against llama-human MET chimeric protein CH2 (assay: ELISA, protein in solid phase).

binding	Binder
binds	B1
binds	B2
binds	B3
binds	B4
binds	B5
binds	B6

These binders were tested against llama-human MET chimeric protein CH3 (assay: ELISA, protein in solid phase).

binding	Binder
binds	B1
binds	B2
binds	B3
binds	B4
no binding (tested: 0-20 nM)	B5
binds	B6

What follows are binders tested against llama MET ECD (llama) (assay: ELISA, protein in solid phase).

binding	Binder
no binding (tested: 0-20 nM)	B1
no binding (tested: 0-20 nM)	B2
no binding (tested: 0-20 nM)	B3
no binding (tested: 0-20 nM)	B4
no binding (tested: 0-20 nM)	B5
no binding (tested: 0-20 nM)	B6

Each binder was assayed against llama-human MET chimeric protein CH7 (assay: ELISA, protein in solid phase).

binding	Binder
binds	B1
binds	B2
binds	B3
binds	B4
binds	B5
no binding (tested: 0-20 nM)	B6

What follows are binders tested against llama-human MET chimeric protein CH5 (assay: ELISA, protein in solid phase).

binding	Binder
no binding (tested: 0-20 nM)	B1
no binding (tested: 0-20 nM)	B2
no binding (tested: 0-20 nM)	B3
no binding (tested: 0-20 nM)	B4
no binding (tested: 0-20 nM)	B5
binds	B6

The binders below were run against T1, human MET ECD (human, UniProt P08581 25-932) (assay: ELISA, protein in solid phase).
T1 construct: range 1-932; recombinant ECD made by the applicants; the stated range begins at residue 1, so it includes the signal peptide of the entry; also called hMET; hMET ECD

binding	Binder
binds	B1
binds	B2
binds	B3
binds	B4
binds	B5
binds	B6

The binders below were run against llama-human MET chimeric protein CH1 (assay: ELISA, protein in solid phase).

binding	Binder
binds	B1
binds	B2
binds	B3
binds	B4
binds	B5
binds	B6

Each binder was assayed against llama-human MET chimeric protein CH4 (assay: ELISA, protein in solid phase).

binding	Binder
no binding (tested: 0-20 nM)	B1
no binding (tested: 0-20 nM)	B2
no binding (tested: 0-20 nM)	B3
no binding (tested: 0-20 nM)	B4
no binding (tested: 0-20 nM)	B5
binds	B6

The binders below were run against llama-human MET chimeric protein CH6 (assay: ELISA, protein in solid phase).

binding	Binder
binds	B1
binds	B2
binds	B3
binds	B4
binds	B5
no binding (tested: 0-20 nM)	B6

What follows are binders tested against T1, human MET ECD (assay: ELISA, MET ECD in solid phase).

binding	Binder
binds	B1
binds	B2
binds	B3
binds	B4
binds	B5
binds	B6

The binders below were run against T2, mouse MET ECD (mouse, UniProt P16056 25-931) (assay: ELISA, MET ECD in solid phase).
T2 construct: range 1-931; recombinant ECD made by the applicants; the stated range begins at residue 1; also called mMET; mMET ECD

binding	Binder
binds	B1
binds	B2
binds	B3
binds	B4
binds	B5
binds	B6
